# Test results as given in paper PMC12824153.
# Protein sequences, listed by entry. Tags and fused reporters are not part of them.
# UniProt Q8NEV1: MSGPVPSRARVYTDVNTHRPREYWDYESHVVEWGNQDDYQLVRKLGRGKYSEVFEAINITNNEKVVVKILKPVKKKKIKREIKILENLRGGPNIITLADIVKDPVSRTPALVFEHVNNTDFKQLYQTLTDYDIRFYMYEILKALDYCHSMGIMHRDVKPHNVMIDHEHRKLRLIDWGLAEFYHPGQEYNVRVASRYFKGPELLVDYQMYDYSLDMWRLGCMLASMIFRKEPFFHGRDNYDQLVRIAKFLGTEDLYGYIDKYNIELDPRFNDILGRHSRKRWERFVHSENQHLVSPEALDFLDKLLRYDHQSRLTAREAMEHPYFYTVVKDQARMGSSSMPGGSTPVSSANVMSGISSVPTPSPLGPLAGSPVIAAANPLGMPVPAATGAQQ
# No constants are given. Whether binding was seen depends on the method and setting. In cells and extracts the contact can be indirect. Some results given as binding are weak or reduced against the parent protein; the word gives no strength.
# Molecular target: T1, SFB-IKKβ (kappa-B kinase subunit beta) (UniProt O14920)
# T1 sequence: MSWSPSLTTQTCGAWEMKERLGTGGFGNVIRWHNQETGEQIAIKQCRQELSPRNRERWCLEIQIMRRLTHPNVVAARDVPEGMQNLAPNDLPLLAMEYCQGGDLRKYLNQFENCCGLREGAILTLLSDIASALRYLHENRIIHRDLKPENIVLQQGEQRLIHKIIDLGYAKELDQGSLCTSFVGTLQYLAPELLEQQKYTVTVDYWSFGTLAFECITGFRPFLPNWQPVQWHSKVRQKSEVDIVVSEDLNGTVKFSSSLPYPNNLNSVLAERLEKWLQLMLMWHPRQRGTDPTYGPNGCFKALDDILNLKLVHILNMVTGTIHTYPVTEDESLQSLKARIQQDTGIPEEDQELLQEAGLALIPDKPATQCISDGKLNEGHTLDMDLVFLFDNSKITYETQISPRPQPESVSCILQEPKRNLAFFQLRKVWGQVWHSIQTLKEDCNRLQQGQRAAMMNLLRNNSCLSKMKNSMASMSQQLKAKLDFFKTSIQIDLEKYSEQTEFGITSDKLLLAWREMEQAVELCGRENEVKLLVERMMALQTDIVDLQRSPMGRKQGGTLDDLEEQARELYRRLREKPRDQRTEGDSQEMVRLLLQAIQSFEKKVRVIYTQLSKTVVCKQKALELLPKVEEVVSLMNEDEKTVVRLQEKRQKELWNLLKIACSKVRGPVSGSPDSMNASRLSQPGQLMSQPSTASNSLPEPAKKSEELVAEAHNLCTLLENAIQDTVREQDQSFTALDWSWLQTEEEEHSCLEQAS
# Experiment: co-IP; A549 cells co-expressing HA-CSK23 and SFB-IKKβ under compression; mild co-IP buffer (50 mM Tris-HCl pH 7.5, 1% Triton X-100, 0.01% SDS, 150 mM NaCl, 1 mM DTT, 0.5 mM EDTA); Flag-tagged proteins precipitated with anti-Flag M2 agarose; cells also treated with W7 (interaction attenuated), FK506 (partially abrogated) or MDL-28170 (no significant effect)
substance,measurement,value
HA-CSK23 (from UniProt Q8NEV1 1-391) (enzyme),binding,binds
